Experimental data as given in patent US4771130A, “Target-entrapped drugs” (priority 1984, dated 1988).
At least one read-out could not be matched to a standard name with certainty.

Tests used:
[1] = test system: cataract formation in rat lenses; test: Cataract formation in rat lenses in organ culture: X-ray irradiated; format: cell-based; details: X-ray irradiation of Asub-Q with rat lenses; 11520 min
Method: (§1) Organ culture was performed by a modification of the method of Kinoshita et al (see Biochem. Biophys. Acta 158, 472-475 (1968)) with a modified TC 199 medium using 50-75 gm Sprague-Dawly male rats, care being taken to avoid contamination of the system. Fresh rat lenses were treated with Asub-Q in the manner hereinafter described and incubated in the presence of fructose and in the presence of galactose, in order to determine the effect of the Asub-Q. The Asub-Q treatment involved the following:
This experiment was similar to the photoirradiation experiment except that the lenses were irradiated with 175 Rads of X-rays in place of light. […] Lenses incubated with galactose would be completely opaque (V).

[2] = test system: cataract formation in rat lenses; test: Cataract formation in rat lenses in organ culture: light irradiated; format: cell-based; details: organ culture studies
Method: as §1
(a) rat lenses were incubated in the dark in an incubation medium containing Asub-Q for two hours to permit the drug to diffuse into the lens;
(b) the lenses were then placed into a fresh medium and irradiated for 10 minutes for complete inhibition of aldose reductase;
(c) the lenses were then placed into a fresh medium for […] with four changes in medium in the first 24 hours to permit non-covalently bound drug to diffuse out; and
(d) the lenses were then incubated in a medium containing fructose or galactose.
In a typical experiment four groups of 20 lens, four to a Petri dish, were used. […] The lens were photographed with color film on a red background and evaluated on a O to V scale with O assigned to a clear lens and V to a lens with a totally opaque cataract. […]

With “N-(2-nitro-4-azidophenyl) hexylenediamine-N-(2'-O-quercitrin) [Asub-Q]” the “protection from sugar induced cataracts” value [1] was 100% and the “effectiveness in protecting lens from cataracts induced by galactose” value [2] was 100%.
